Values of other authors in patent US20120251595A1, “EMULSION TEMPLATE METHOD TO FORM SMALL PARTICLES OF HYDROPHOBIC AGENTS WITH SURFACE ENRICHED HYDROPHILICITY BY ULTRA RAPID FREEZING” (BOARD OF REGENTS, THE UNIVERSITY OF TEXAS SYSTEM, priority 2009, published 2012).
Values after ≈ are worked out from the molar mass of the structure shown.

Details: reported; cited from earlier work

SMILES: CCC(C)n1ncn(-c2ccc(N3CCN(c4ccc(OCC5COC(Cn6cncn6)(c6ccc(Cl)cc6Cl)O5)cc4)CC3)cc2)c1=O (centres unmarked) [ITZ, itraconazole]
- Solubility in acidic media: approximately 4 μg/mL
- Solubility in neutral media: ~1 ng/mL (≈ 1.42 nM)
